## Library screen at single concentrations

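Whole-cell growth test on Mycobacterium tuberculosis, read after 4 days in a medium based on cholesterol and the lipid DPPC; the read-out is not stated. Tested at 50 µM. Higher reads as more growth inhibition (inferred: compounds with an IC50 in retests scored well above the rest). Size under these conditions: about 69,000 compounds, about 370 of them at 50% or above in at least one test.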

The filed quantity is “Percent Effect” (%).
The record does not define 0% and 100%; most values in the screen are far below 50% and negative numbers occur (in some assays of this library far below -100).
This is an unselected part of the compounds tested.
Two or more numbers in one place are separate tests of the same structure; such repeats can differ widely.

compound	Percent Effect
O=C(c1nccc2ccccc12)N(Cc1ccco1)CC1CCCO1 (stereo not shown)	-10.78
O=S(=O)(Cc1ccccc1)NCC1CCCN(Cc2cccs2)C1 (stereo not shown)	10.75
CC(C)N(CCO)C(=O)C1CCC(=O)N(Cc2ccc(Cl)cc2)C1 (stereo not shown)	-2.556 and -13.99
O=C1NCCCC1NC(=O)C1(c2cccc(Cl)c2)CCC1 (stereo not shown)	-15.28 and 8.269
Cn1cc(-c2cnc(N3CCOCC3)nc2)cc1C(=O)O	-10.98 and 1.276
O=C(O)C(F)(F)F.[H][C@@]12CCN(Cc3ccoc3)C[C@]1([H])O[C@H](C(=O)NC1CC1)C2	18.25
CSc1ccc(CN(CCO)C(=O)CCc2ccc(O)cc2)cc1	18.84
CN(Cc1cc(Br)cn1C)C(=O)c1ccsc1	13.23
CCc1nc(C)c(C(=O)NCC2COc3cc(OC)ccc3C2)o1 (stereo not shown)	8.941
Cc1noc(C2(NC(=O)c3cccnc3O)CCCCC2)n1	8.31
Cc1ccccc1CSc1nc(=O)n(CCO)c2c1CCC2	10.54
CCN(Cc1cc(F)c(OC)c(Cl)c1)Cc1nc(COC)no1	-11.65
CCn1cc(S(=O)(=O)N2CCN(S(=O)(=O)c3ccc(Br)s3)CC2)cn1	10.23
CN1CC(=O)N(c2ccccc2)CC12CCN(S(C)(=O)=O)C2.O=C(O)C(F)(F)F (stereo not shown)	-28.18
O=C(NCCCn1cncn1)N1CCCC(N2CCCC2)C1 (stereo not shown)	-5.598
CCCS(=O)(=O)N1CCC(n2nc(-c3cc(C)oc3C)ccc2=O)CC1	13.61
CS(=O)(=O)NCCC(=O)N1CCCC1c1noc(C2CC2)n1 (stereo not shown)	0.7927
Cc1cc(C)c2c(N3CCC(C(=O)N4CCCC4)CC3)ncnc2n1	-15.69
Cc1cc(C(=O)N[C@H]2CN(CCO)C[C@@H]2C2CC2)sc1C	1.846
CNc1nc(C2CCCN2C(C)=O)nc2c1CN(CCO)CC2.O=CO (stereo not shown)	-12.8
O=C(C1CCOC1)N1CC[C@@H](O)[C@@H]1Cc1ccccc1 (stereo partly shown)	4.17
[H][C@@]12CCN(C(=O)c3ccc(S(=O)(=O)NC4CCC4)cc3)[C@]1([H])CNC2	11.61
CCOCCOC(C)C(=O)Nc1ccc2[nH]c(C)cc2c1 (stereo not shown)	-1.315
Cc1noc(C2CCN(C(=O)C3CCCO3)CC2)n1 (stereo not shown)	9.677
CC(=O)N1CCN(C(=O)CCOc2ccc(C(C)C)cc2)CC1	-6.825
CC(C#N)CN(C)C(=O)CCNC(=O)OCC(F)(F)F (stereo not shown)	6.076
Cc1ocnc1C(=O)N[C@H]1CN(CC2CCC2)C[C@@H]1C(C)C	14.1
CCC(=O)NCC(=O)NCC1(O)CCC(C(C)(C)C)CC1 (stereo not shown)	7.455
O=C(O)C(F)(F)F.O=C(c1cnc2ccccc2c1)N1CCC2(CCN2c2ncccn2)C1 (stereo not shown)	-0.926
COCCC(=O)N1CCCC1c1cccc(C)c1C (stereo not shown)	-11.35
CC(C)CCOCCNC(=O)Nc1cc(C(F)(F)F)c[nH]c1=O	30.82
Cc1onc(-c2ccncc2)c1C(=O)NC1CCCOC1 (stereo not shown)	1.068 and -2.277
Cc1cnn(CC2CCCN2C(=O)c2sccc2C#N)c1 (stereo not shown)	3.53 and 4.871
Cc1n[nH]c(C2CN(C(=O)c3cc(Cl)c[nH]3)CCO2)n1 (stereo not shown)	11.84
CS(=O)(=O)NCCCNC(=O)NCc1ccccc1	-20.61
COc1ccc(-n2c(SCC(=O)O)nnc2-c2cn[nH]c2)cc1	-13.59
COCCC(C)NS(=O)(=O)c1ccc(C)c(N(C)C)c1 (stereo not shown)	-5.823
NCC1CN(C(=O)Cn2ncc(N3CCCCC3)cc2=O)CCO1 (stereo not shown)	-22.04
COCCN(Cc1ccccc1Cl)C(=O)c1c(C)cc(C)[nH]c1=O	-9.526
CC(C)c1nn(C)c(N2CCOCC2)c1CNCCS(C)(=O)=O	9.494
Cn1cnc(S(=O)(=O)NCCCN2CCCCCC2=O)c1Cl	-0.891
O=C(O)C(F)(F)F.[H][C@@]12CN(CC)C[C@]1([H])[C@H](OC)CCN2S(=O)(=O)c1ccccc1	5.001 and -6.987
CNC(=O)[C@@H](c1ccccc1OC)N1CCC[C@H]1C(=O)NC(C)(C)C.Cl	3.719
Cn1ccc(NC(=O)Cc2cccc(F)c2)n1	-7.723 and 3.891
O=C(O)C(F)(F)F.O=C1CCCN1CC1CN(CC2CCOCC2)Cc2nccn2C1 (stereo not shown)	-1.513 and -7.307
Cc1cc(NC(=O)NCc2nccn2C)ccc1OC(C)C	-22.47 and -5.982
CC(C)(C)c1cc(=O)[nH]c(-c2ccccc2CN2CCC[C@@H](O)C2)n1	4.806
Cc1ccc(C(=O)NC(CN2CCCC2=O)c2ccccc2)c(=O)[nH]1 (stereo not shown)	-25.79
CN1CC(=O)N(c2cccc(F)c2)CC12CCN(S(C)(=O)=O)C2.O=C(O)C(F)(F)F (stereo not shown)	-9.226
O=C(NCC1(O)CCOC1)NCC1(c2ccccc2Cl)CCC1 (stereo not shown)	14.94
CCNC(=O)N1CCCC(C(=O)c2cccc(OC(C)C)c2)C1 (stereo not shown)	-5.064
Cc1cccc(CSc2ncc(Br)c(C(=O)O)n2)c1	0.8079
[H][C@@]12C[C@H](C(=O)N(C)C)[C@@]([H])(CN(C(=O)NCC3CCCCC3)C1)O2	-5.429
O=C(c1cc(F)ccc1F)C1CCN(C(=O)c2cnccn2)CC1	13.57
Cc1noc(CN2CCN(CC(C)O)CC2)n1 (stereo not shown)	19.14 and -3.947
O=C(NCc1ccccc1OCC1CC1)C1CCOC1 (stereo not shown)	16.14
CC(=O)c1c(F)cccc1NCC(O)c1ccc(F)c(F)c1 (stereo not shown)	7.406
CC(C)(C)OC(=O)N1CCC(NC2CCS(=O)(=O)C2)CC1 (stereo not shown)	2.09
CC(C)N1CCC2(CC1)CC(c1cccnc1)C(=O)N2 (stereo not shown)	-12.64 and 2.372
O=S(=O)(c1cccnc1)N1CCCC1COc1ccccc1 (stereo not shown)	-5.574
[H][C@]12CC[C@]([H])(CN(S(C)(=O)=O)C1)N(Cc1ccc3nsnc3c1)C2	-2.096 and 8.454

Once more, the final 7:

compound	Percent Effect
Cc1noc(CN2CCN(CC(C)O)CC2)n1 (stereo not shown)	19.14 and -3.947
O=C(NCc1ccccc1OCC1CC1)C1CCOC1 (stereo not shown)	16.14
CC(=O)c1c(F)cccc1NCC(O)c1ccc(F)c(F)c1 (stereo not shown)	7.406
CC(C)(C)OC(=O)N1CCC(NC2CCS(=O)(=O)C2)CC1 (stereo not shown)	2.09
CC(C)N1CCC2(CC1)CC(c1cccnc1)C(=O)N2 (stereo not shown)	-12.64 and 2.372
O=S(=O)(c1cccnc1)N1CCCC1COc1ccccc1 (stereo not shown)	-5.574
[H][C@]12CC[C@]([H])(CN(S(C)(=O)=O)C1)N(Cc1ccc3nsnc3c1)C2	-2.096 and 8.454

Source: ChEMBL document CHEMBL3988442, “University of Dundee, Small-Polar-MMV Screening Library” (2021).